Laboratory results reported in paper PMC11671384.
These are yes or no findings as the source states them, for the method shown. Binding seen in cells or lysates may run through a third protein. A yes stands for co-enrichment or nearness to the bait. Other partners may have been found.

Chains of the proteins cited; added tags and fusions are not shown. Lines headed by an entry give the natural chain unless they say otherwise; changes in a name come on top.
UniProt Q92597: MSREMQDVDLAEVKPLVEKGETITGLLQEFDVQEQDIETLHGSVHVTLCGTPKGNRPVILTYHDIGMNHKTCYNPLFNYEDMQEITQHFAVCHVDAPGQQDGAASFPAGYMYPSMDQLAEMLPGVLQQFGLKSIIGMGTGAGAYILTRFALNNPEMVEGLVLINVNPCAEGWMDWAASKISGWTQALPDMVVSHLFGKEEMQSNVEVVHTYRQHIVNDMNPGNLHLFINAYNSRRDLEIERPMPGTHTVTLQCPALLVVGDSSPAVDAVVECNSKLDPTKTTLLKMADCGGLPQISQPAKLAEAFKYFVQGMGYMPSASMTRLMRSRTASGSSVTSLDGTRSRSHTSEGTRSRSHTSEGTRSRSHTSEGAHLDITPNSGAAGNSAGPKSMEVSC
UniProt P26599: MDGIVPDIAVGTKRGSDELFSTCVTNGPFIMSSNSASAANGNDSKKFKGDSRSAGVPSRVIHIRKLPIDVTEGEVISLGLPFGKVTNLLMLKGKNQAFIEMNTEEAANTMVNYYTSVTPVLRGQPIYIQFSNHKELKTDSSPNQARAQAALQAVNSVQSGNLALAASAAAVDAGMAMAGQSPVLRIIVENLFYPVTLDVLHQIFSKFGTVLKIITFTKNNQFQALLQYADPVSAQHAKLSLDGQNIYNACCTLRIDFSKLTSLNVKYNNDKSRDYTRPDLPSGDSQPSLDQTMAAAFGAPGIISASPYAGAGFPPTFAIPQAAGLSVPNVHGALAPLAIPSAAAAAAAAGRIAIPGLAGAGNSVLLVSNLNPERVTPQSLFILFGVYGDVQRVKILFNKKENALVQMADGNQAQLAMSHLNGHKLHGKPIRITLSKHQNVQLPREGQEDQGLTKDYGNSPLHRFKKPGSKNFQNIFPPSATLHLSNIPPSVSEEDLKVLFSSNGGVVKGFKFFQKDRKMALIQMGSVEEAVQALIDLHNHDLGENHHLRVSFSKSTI

Target: NDRG1 (S330D) (UniProt Q92597)
Assay: affinity purification with mass spectrometry; NDRG1 (S330D) overexpressed in HUVECs; nuclear proteins precipitated with anti-His-Tag (IgG as control), SDS-PAGE, Coomassie, mass spectrometry

binding: binds
Substance: PTBP1 (endogenous, HUVEC) (from UniProt P26599 1-557)
